Experimental findings from paper PMC2746283, “BtubA-BtubB Heterodimer Is an Essential Intermediate in Protofilament Assembly” (PLoS ONE, 2009) are described below.

Results are given in words; binding and its absence hold for the method and conditions named.

B1: BtubA, wild type (natural protein, P. dejongeii)
chain: MKVNNTIVVSIGQAGNQIAASFWKTVCLEHGIDPLTGQTAPGVAPRGNWSSFFSKLGESSSGSYVPRAIMVDLEPSVIDNVKATSGSLFNPANLISRTEGAGGNFAVGYLGAGREVLPEVMSRLDYEIDKCDNVGGIIVLHAIGGGTGSGFGALLIESLKEKYGEIPVLSCAVLPSPQVSSVVTEPYNTVFALNTLRRSADACLIFDNEALFDLAHRKWNIESPTVDDLNLLITEALAGITASMRFSGFLTVEITLRELLTNLVPQPSLHFLMCAFAPLTPPDRSKFEELGIEEMIKSLFDNGSVFAACSPMEGRFLSTAVLYRGIMEDKPLADAALAAMREKLPLTYWIPTAFKIGYVEQPGISHRKSMVLLANNTEIARVLDRICHNFDKLWQRKAFANWYLNEGMSEEQINVLRASAQELVQSYQVAEESGAKAKVQDSAGDTGMRAAAAGVSDDARGSMSLRDLVDRRR
B2: BtubB, wild type (natural protein)
chain: VREILSIHVGQCGNQIADSFWRLALREHGLTEAGTLKEGSNAAANSNMEVFFHKVRDGKYVPRAVLVDLEPGVIARIEGGDMSQLFDESSIVRKIPGAANNWARGYNVEGEKVIDQIMNVIDSAVEKTKGLQGFLMTHSIGGGSGSGLGSLILERLRQAYPKKRIFTFSVVPSPLISDSAVEPYNAILTLQRILDNADGAVLLDNEALFRIAKAKLNRSPNYMDLNNIIALIVSSVTASLRFPGKLNTDLSEFVTNLVPFPGNHFLTASFAPMRGAGQEGQVRTNFPDLARETFAQDNFTAAIDWQQGVYLAASALFRGDVKAKDVDENMATIRKSLNYASYMPASGGLKLGYAETAPEGFASSGLALVNHTGIAAVFERLIAQFDIMFDNHAYTHWYENAGVSRDMMAKARNQIATLAQSYRDAS
notes: BtubB, bacterial tubulin-like protein of Prosthecobacter; the species is printed only for BtubA (P. dejongeii); also called B-wt; BtubB WT; source: E. coli, purified as described previously [3], with an added Sephacryl HR-100 column step; not shown: His tag, N-terminal, kept

In the assay “BtubA, wild type” the target is B1. Kind of assay: AUC; sedimentation equilibrium of BtubA alone or BtubB alone, no GTP, HMK buffer; both purified.
In assay [1] the target is BtubB, wild type (Prosthecobacter (species not stated for BtubB)) (UniProt Q8GCC1). Described as above.

B1: the binding entry in the assay with BtubA, wild type is on record as “no binding”. As for B2, the binding entry in assay [1] is reported as “no binding”.
